Measured values reported in PMC3507683, “Crystal Structure of the Hexachlorocyclohexane Dehydrochlorinase (LinA-Type2): Mutational Analysis, Thermostability and Enantioselectivity” (PLoS ONE, 2012).
No constants are given. Whether binding was seen depends on the method and setting. Some results given as binding are weak or reduced against the parent protein; the word gives no strength.

Biological target: Hexachlorocyclohexane dehydrochlorinase LinA-type2 (not stated (soil metagenome)) (UniProt P51697)
Assay: crystal structure; hanging drop, 293 K, 0.1 M trisodium citrate pH 5.5, 3% PEG 3350; space group P6(3)22; seven subunits in the asymmetric unit; 3.5 Å; both purified

binding: binds
B1: Hexachlorocyclohexane dehydrochlorinase LinA-type2 (enzyme, UniProt P51697 1-156, looked up)
chain: MSDLDRLASRAAIQDLYSDQLIGVDKRQEGRLASIWWDDAEWTIEGIGTYKGPEGALDLANNVLWPMYHETIHYGTNLRLEFVSADKVNGIGDVLCLGNLVEGNQSILIAAVYTNEYERRDGVWKFSKLNGCMNYFTPLAGIHFAPPGIHFAPSGA
notes: LinA-type2, gamma-hexachlorocyclohexane dehydrochlorinase variant obtained by PCR from metagenomic DNA of an HCH-contaminated soil (GenBank EU863871); It differs by 10 residues from LinA-type1 (= LinA-UT26 of Sphingobium japonicum UT26, 156 amino acids); The printed primers run from the ATG start codon to the last codon, without a stop codon; Homotrimer; also called -type2 protein; source: E. …
